Values from PubChem BioAssay AID1259308 (NCATS, 2017)
In all, the deposit lists about 59,000 reagents; this is a part drawn at random. Over the whole deposit, about 1,510 (2.6%) are marked active. 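Calls use total luciferase alone and ignore viability, so some active siRNAs may act by altering cell number.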 Entries without a mark were called inactive. The numbers tell different reagents against one gene apart. Not all columns of the deposit are shown.

Aim: 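Genes whose loss raises luciferase production in HEK293 cells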 (primary screen)
Cell system: human HEK293 embryonic kidney cells stably expressing firefly luciferase (HEK-CMV-Luc2-Hygro)
Reagents: single siRNA against human genes, 0.8 pmol siRNA per well
Timing: 72 h
Detection: 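Reporter luminescence and viable-cell signal on separate replicate plates, given as percent of non-targeting control and median/MAD z-scores, plus per-cell luciferase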
Direction: total luciferase, z-score: higher = more reporter protein produced
Hit rule: 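An siRNA counts as active if its total luciferase robust z-score exceeds 3; genes with two or more such siRNAs out of three were retested with fresh siRNAs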
Calls: active = raised luciferase; inactive = no rise

DLK2 #1 | total luciferase, z-score: 0.0314
DLK2 #2 | total luciferase, z-score: -0.276
DLK2 #3 | total luciferase, z-score: -0.64
MTIF3 #1 | total luciferase, z-score: 0.696
MTIF3 #2 | total luciferase, z-score: -0.693
MTIF3 #3 | total luciferase, z-score: 5.2 (active)
LRRIQ1 #1 | total luciferase, z-score: -0.438
LRRIQ1 #2 | total luciferase, z-score: 0.264
LRRIQ1 #3 | total luciferase, z-score: -1.23
DOHH #1 | total luciferase, z-score: 0.373
DOHH #2 | total luciferase, z-score: 0.258
DOHH #3 | total luciferase, z-score: -0.3
PLA2G4E #1 | total luciferase, z-score: 0.203
PLA2G4E #2 | total luciferase, z-score: 0.123
PLA2G4E #3 | total luciferase, z-score: -0.851
MUC16 #1 | total luciferase, z-score: -1.46
MUC16 #2 | total luciferase, z-score: 2.6
MUC16 #3 | total luciferase, z-score: -1.3
UBXN1 #1 | total luciferase, z-score: -1.03
UBXN1 #2 | total luciferase, z-score: 2.13
UBXN1 #3 | total luciferase, z-score: -0.802

Part of the list above, set out differently.
Gene | reagent no. | total luciferase, z-score
MTIF3 | 3 | 5.2 (active)
LRRIQ1 | 1 | -0.438
LRRIQ1 | 2 | 0.264

Further results follow:
DET1 #1 | total luciferase, z-score: -0.225
DET1 #2 | total luciferase, z-score: 0.48
DET1 #3 | total luciferase, z-score: -1.61
RAE1 #1 | total luciferase, z-score: 0.37
RAE1 #2 | total luciferase, z-score: -1.61
RAE1 #3 | total luciferase, z-score: 1.67
ZMYND8 #1 | total luciferase, z-score: -0.0725
ZMYND8 #2 | total luciferase, z-score: 0.351
ZMYND8 #3 | total luciferase, z-score: -0.452
RABEPK #1 | total luciferase, z-score: 1.22
RABEPK #2 | total luciferase, z-score: -1.87
RABEPK #3 | total luciferase, z-score: -0.642
